Assay results: patent US20240190966A1
These are yes or no findings as the source states them, for the method shown. Some binding calls cover weakened binding; strength is not graded here. For some assays here: Where a sequence is shown, tags or fusion partners need not be part of it.

Amino acid sequences for entries named in this document (tags omitted). A change or cut given only in a name is not applied to a line headed by its entry.
UniProt P07766: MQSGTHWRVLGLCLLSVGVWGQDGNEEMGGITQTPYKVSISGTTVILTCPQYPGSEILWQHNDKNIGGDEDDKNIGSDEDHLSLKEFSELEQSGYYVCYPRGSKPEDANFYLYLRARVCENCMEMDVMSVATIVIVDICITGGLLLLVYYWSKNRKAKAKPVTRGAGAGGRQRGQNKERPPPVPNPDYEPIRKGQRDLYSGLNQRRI

Tests used:
[1] = biological target: T1, cyno extracellular domain (ECD) of CD3 (cynomolgus monkey) (UniProt Q95LI5); assay: BIAcore SPR
T1 sequence: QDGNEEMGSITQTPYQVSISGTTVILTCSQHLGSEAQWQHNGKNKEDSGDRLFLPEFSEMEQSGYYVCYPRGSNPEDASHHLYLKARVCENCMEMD

human LY6G6D-Fc (human) [2] = biological target: T2, human LY6G6D-Fc (human) (UniProt O95868); assay: BIAcore SPR
T2 sequence: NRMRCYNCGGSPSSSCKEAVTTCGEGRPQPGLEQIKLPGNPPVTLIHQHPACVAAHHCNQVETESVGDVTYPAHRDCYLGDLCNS

[3] = biological target: human extracellular domain (ECD) of CD3 (human) (UniProt P07766); assay: BIAcore SPR
human LY6G6D-Fc (human) [4] = biological target: T2, human LY6G6D-Fc (human); assay: BIAcore SPR, TDB, 37 C
human LY6G6D-Fc (human) [5] = biological target: T2, human LY6G6D-Fc (human); assay: BIAcore SPR; LY6G6D-Fc immobilized; 37 C (FIG. 36)

binding [1]: binds
binding (human LY6G6D-Fc (human) [2]): binds
binding [3]: binds
binding (human LY6G6D-Fc (human) [4]): binds
binding (human LY6G6D-Fc (human) [5]): binds
B1: LY6G6D TDB comprising the anti-LY6G6D 20A12.QNTv12 arm (two-cell) and the anti-CD3 38E4.v1 arm (bispecific antibody, V domains shown)
VH 1: EVQLLESGGGLVQPGGSLRLSCAASGFDFVNNAMIWVRQAPGKGLEWVSALSFADNTAYYATWASGRFTISRDSSKTTVYLQMNSLRAEDTAVYYCMRGDLWGPGTLVTVSS
VL 1: DIQMTQSPSTLSASVGDRVTITCQASESITRYLNWYQQKPGKAPKLLIYDASKLPSGVPSRFSGSGSGTEFTLTISSLQPDDFATYYCQSTSFRGRSYQNTFGGGTKVEIK
VH 2: EVQLVQSGAEVKKPGASVKVSCKASGFTFTSYYIHWVRQAPGQGLEWIGWIYPENDNTKYNEKFKDRVTITADTSTSTAYLELSSLRSEDTAVYYCARDGYSRYYFDYWGQGTLVTVSS
VL 2: DIVMTQSPDSLAVSLGERATINCKSSQSLLNSRTRKNYLAWYQQKPGQSPKLLIYWTSTRKSGVPDRFSGSGSGTDFTLTISSLQAEDVAVYYCKQSFILRTFGQGTKVEIK
